Where a name gives a salt, the structure may show the parent alone. The list shows a part of the results. The calls rarely recur for the same compound in another form.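 In K562 cells expressing nanoluciferase-fused kinases, luminescence was recorded at 4 h intervals between 2 and 18 h, normalized as percent of control with DMSO at 100% and a positive control at 0%. A significant (2 sigma) signal drop marks a time point as decreased. The authors' rule for a hit is not shown and takes in more than the number of time points.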
Molecular target: PRKCA (UniProt P17252)
Assay: kinase-Nluc reporter destabilization hit call (1 = scored as downregulated) (binary); higher = compound decreases kinase abundance
Settings: 2.5 µM; K562; 2-18 h

kinase-Nluc reporter destabilization hit call, inactive:
CN1CCCN(C(=O)c2cccc(-c3ccc(/C=C4/C(=O)Nc5ccc(Cl)cc54)o3)c2)CC1 [CX-6258 (hydrochloride)] 0
Clc1ccc(C2(c3ccc(-c4cn[nH]c4)cc3)CCNCC2)cc1 [AT7867 (dihydrochloride)] 0
CC(C)Oc1ccc(-c2nn([C@@H](C)c3oc4ccc(F)cc4c(=O)c3-c3cccc(F)c3)c3ncnc(N)c23)cc1F [Umbralisib] 0
C=CC(=O)Nc1cc(Nc2nccc(-c3cn(C)c4ccccc34)n2)c(OC)cc1N(C)CCN(C)C [Osimertinib] 0
COc1cc2c(Oc3ccc4[nH]c(C)cc4c3F)ncnc2cc1OCCCN1CCCC1 [Cediranib (maleate)] 0
CC(C)Oc1ccc(-c2nn([C@@H](C)c3oc4ccc(F)cc4c(=O)c3-c3cccc(F)c3)c3ncnc(N)c23)cc1F [Umbralisib (hydrochloride)] 0
COc1ccc(S(=O)(=O)N(CCO)c2ccccc2CN(C)C/C=C/c2ccc(Cl)cc2)cc1 [KN-93 (hydrochloride)] 0
C=CC(=O)N1CCN(c2ncnc3c(F)c(-c4c(O)cccc4F)c(Cl)cc23)CC1 0
COc1ccc(S(=O)(=O)Nc2ccccc2CN(C)C/C=C/c2ccc(Cl)cc2)cc1 [KN-92 (hydrochloride)] 0
CCN(CC)Cc1ccc(OC)c(-c2cc3c(-c4ccc(C(=O)O)c(C(C)C)c4)ccnc3[nH]2)c1 0
CN(C)C/C=C/C(=O)Nc1cc2c(Nc3ccc(F)c(Cl)c3)ncnc2cc1O[C@H]1CCOC1 [Afatinib (dimaleate)] 0
Oc1cccc(-c2nc(N3CCOCC3)c3oc4ncccc4c3n2)c1 [PI-103 (Hydrochloride)] 0
c1cc(-c2cnn3cc(-c4ccc(OCCN5CCCCC5)cc4)cnc23)ccn1 [Dorsomorphin] 0
COc1ccc(S(=O)(=O)N(CCO)c2ccccc2CN(C)C/C=C/c2ccc(Cl)cc2)cc1 [KN-93 (phosphate)] 0
Nc1ncnc2c1c(-c1ccc(Oc3ccccc3)cc1)nn2[C@@H]1CCCNC1 [IBT6A (hydrochloride)] 0

Same assay, conditions: 10 µM; K562; 2-18 h

kinase-Nluc reporter destabilization hit call, inactive:
COc1cc2nccc(Oc3ccc(NC(=O)C4(C(=O)Nc5ccc(F)cc5)CC4)cc3)c2cc1OC [Cabozantinib (S-malate)] 0
Cn1cc(-c2cnc3ccc4ccc(CS(=O)(=O)NCc5ccccn5)cc4c(=O)c3c2)cn1 [MK-8033 (hydrochloride)] 0
CNC(=O)c1ccc(Nc2ncc(C(F)(F)F)c(NCc3nccnc3N(C)S(C)(=O)=O)n2)cc1 [Defactinib] 0
N#CCNC(=O)c1ccc(-c2ccnc(Nc3ccc(N4CCOCC4)cc3)n2)cc1 [Momelotinib] 0
CC(=O)c1c(C)c2cnc(Nc3ccc(N4CCNCC4)cn3)nc2n(C2CCCC2)c1=O [Palbociclib (isethionate)] 0
Nc1cncc(-c2cn3ccnc3c(Nc3ccc(N4CCN(C5COC5)CC4)cc3)n2)n1 [Lanraplenib (succinate)] 0
C#Cc1cccc(Nc2ncnc3cc4c(cc23)OCCOCCOCCO4)c1 [Icotinib] 0
O=C(O)c1ccc2c(c1)nc(Nc1cccc(Cl)c1)c1ccncc12 [Silmitasertib (sodium salt)] 0
CC(C)Nc1cc(-c2c[nH]c(C(=O)N[C@H](CO)c3cccc(Cl)c3)c2)c(Cl)cn1 [Ulixertinib (hydrochloride)] 0
C=CC(=O)N1CCN(c2ncnc3c(F)c(-c4c(O)cccc4F)c(Cl)cc23)CC1 0
CN(C)C(=O)c1cc2cnc(Nc3ccc(N4CCNCC4)cn3)nc2n1C1CCCC1 [Ribociclib] 0
COc1cc2c(-c3cnn4cc(N5CCC(N6CCN(C)CC6)CC5)cnc34)ccnc2cc1F [ALK2-IN-4 (succinate)] 0
CCN(CC)Cc1ccc(OC)c(-c2cc3c(-c4ccc(C(=O)O)c(C(C)C)c4)ccnc3[nH]2)c1 0
O=C(c1nn(-c2ccc(CN3CCOCC3)cc2)c2c1CS(=O)(=O)c1c(F)cccc1-2)N1CCOCC1 0
CC(C)(C)n1nc(-c2cccc3ccccc23)c2c(N)ncnc21 [1-Naphthyl PP1 (hydrochloride)] 0
CCN(CC)CC(=O)Nc1c(C)cccc1C [Lidocaine (hydrochloride)] 0
Cn1ncc(Cl)c1-c1cc(C(=O)N[C@H](CN)Cc2cccc(F)c2)sc1Cl [Afuresertib (hydrochloride)] 0
COc1cc2c(cc1OC)-c1c(C)c3ccc(OC)c(OC)c3c[n+]1CC2 [Dehydrocorydaline] 0
C[C@H](CCC(=O)NCCS(=O)(=O)O)[C@H]1CC[C@H]2[C@@H]3[C@@H](O)C[C@@H]4C[C@H](O)CC[C@]4(C)[C@H]3CC[C@]12C [Tauroursodeoxycholate (dihydrate)] 0
OCCn1cc(-c2cnc3nnn(Cc4ccc5ncccc5c4)c3n2)cn1 0
C[S+]([O-])c1ccc(-c2nc(-c3ccc(F)cc3)c(-c3ccncc3)[nH]2)cc1 (configuration not stated) 0
CC(C)(C)n1nc(-c2cccc3ccccc23)c2c(N)ncnc21 [1-Naphthyl PP1] 0

— the supplement of paper PMC12823440, “Inhibitors supercharge kinase turnover through native proteolytic circuits” (Nature, 2025)
